{"source": "ChEMBL document CHEMBL4316593", "about": "(Eur J Med Chem, 2019)", "assay_type_in_all_cases": "cell-based", "details_in_all_cases": "U-87MG ATCC", "key": {"[1]": {"assay": "Inhibition of RTK/PI3K/AKT/mTOR signaling in human U87 cells assessed as down regulation of LRRCC1 gene expression at cytotoxic IC50 measured after 48 hrs relative to control"}, "[2]": {"assay": "Inhibition of RTK/PI3K/AKT/mTOR signaling in human U87 cells assessed as down regulation of ZFAND2A gene expression at cytotoxic IC50 measured after 48 hrs relative to control"}, "[3]": {"assay": "Inhibition of RTK/PI3K/AKT/mTOR signaling in human U87 cells assessed as down regulation of NOCT gene expression at cytotoxic IC50 measured after 48 hrs relative to control"}, "[4]": {"assay": "Inhibition of RTK/PI3K/AKT/mTOR signaling in human U87 cells assessed as down regulation of GPAT3 gene expression at cytotoxic IC50 measured after 48 hrs relative to control"}, "[5]": {"assay": "Inhibition of RTK/PI3K/AKT/mTOR signaling in human U87 cells assessed as down regulation of MFSD6 gene expression at cytotoxic IC50 measured after 48 hrs relative to control"}, "[6]": {"assay": "Inhibition of RTK/PI3K/AKT/mTOR signaling in human U87 cells assessed as down regulation of HAUS3 gene expression at cytotoxic IC50 measured after 48 hrs relative to control"}, "[7]": {"assay": "Inhibition of RTK/PI3K/AKT/mTOR signaling in human U87 cells assessed as down regulation of KCTD13 gene expression at cytotoxic IC50 measured after 48 hrs relative to control"}, "[8]": {"assay": "Inhibition of RTK/PI3K/AKT/mTOR signaling in human U87 cells assessed as down regulation of LRRC58 gene expression at cytotoxic IC50 measured after 48 hrs relative to control"}, "[9]": {"assay": "Inhibition of RTK/PI3K/AKT/mTOR signaling in human U87 cells assessed as down regulation of KIAA0355 gene expression at cytotoxic IC50 measured after 48 hrs relative to control"}, "[10]": {"assay": "Inhibition of RTK/PI3K/AKT/mTOR signaling in human U87 cells assessed as down regulation of USP4 gene expression at cytotoxic IC50 measured after 48 hrs relative to control"}, "[11]": {"assay": "Inhibition of RTK/PI3K/AKT/mTOR signaling in human U87 cells assessed as down regulation of ZC2HC1A gene expression at cytotoxic IC50 measured after 48 hrs relative to control"}, "[12]": {"assay": "Inhibition of RTK/PI3K/AKT/mTOR signaling in human U87 cells assessed as down regulation of GPRIN1 gene expression at cytotoxic IC50 measured after 48 hrs relative to control"}, "[13]": {"assay": "Inhibition of RTK/PI3K/AKT/mTOR signaling in human U87 cells assessed as down regulation of HJURP gene expression at cytotoxic IC50 measured after 48 hrs relative to control"}, "[14]": {"assay": "Inhibition of RTK/PI3K/AKT/mTOR signaling in human U87 cells assessed as down regulation of WASHC4 gene expression at cytotoxic IC50 measured after 48 hrs relative to control"}, "[15]": {"assay": "Inhibition of RTK/PI3K/AKT/mTOR signaling in human U87 cells assessed as down regulation of FYCO1 gene expression at cytotoxic IC50 measured after 48 hrs relative to control"}, "[16]": {"assay": "Inhibition of RTK/PI3K/AKT/mTOR signaling in human U87 cells assessed as down regulation of ANXA5 gene expression at cytotoxic IC50 measured after 48 hrs relative to control"}, "[17]": {"assay": "Inhibition of RTK/PI3K/AKT/mTOR signaling in human U87 cells assessed as up regulation of SMURF2 gene expression at cytotoxic IC50 measured after 48 hrs relative to control"}, "[18]": {"assay": "Inhibition of RTK/PI3K/AKT/mTOR signaling in human U87 cells assessed as up regulation of ATPase phospholipid transporting 8B2 gene expression at cytotoxic IC50 measured after 48 hrs relative to control"}, "[19]": {"assay": "Inhibition of RTK/PI3K/AKT/mTOR signaling in human U87 cells assessed as up regulation of olfactomedin like 2A gene expression at cytotoxic IC50 measured after 48 hrs relative to control"}, "[20]": {"assay": "Inhibition of RTK/PI3K/AKT/mTOR signaling in human U87 cells assessed as up regulation of growth factor receptor bound protein 7 gene expression at cytotoxic IC50 measured after 48 hrs relative to control"}, "[21]": {"assay": "Inhibition of RTK/PI3K/AKT/mTOR signaling in human U87 cells assessed as up regulation of SH3 domain binding protein 4 gene expression at cytotoxic IC50 measured after 48 hrs relative to control"}, "[22]": {"assay": "Inhibition of RTK/PI3K/AKT/mTOR signaling in human U87 cells assessed as up regulation of interferon induced transmembrane protein 3 gene expression at cytotoxic IC50 measured after 48 hrs relative to control"}, "[23]": {"assay": "Inhibition of RTK/PI3K/AKT/mTOR signaling in human U87 cells assessed as up regulation of NCK associated protein 5 like gene expression at cytotoxic IC50 measured after 48 hrs relative to control"}, "[24]": {"assay": "Inhibition of RTK/PI3K/AKT/mTOR signaling in human U87 cells assessed as up regulation of stomatin gene expression at cytotoxic IC50 measured after 48 hrs relative to control"}, "[25]": {"assay": "Inhibition of RTK/PI3K/AKT/mTOR signaling in human U87 cells assessed as up regulation of carbohydrate sulfotransferase 15 gene expression at cytotoxic IC50 measured after 48 hrs relative to control"}, "[26]": {"assay": "Inhibition of RTK/PI3K/AKT/mTOR signaling in human U87 cells assessed as up regulation of regulator of G-protein signaling 10 gene expression at cytotoxic IC50 measured after 48 hrs relative to control"}, "[27]": {"assay": "Inhibition of RTK/PI3K/AKT/mTOR signaling in human U87 cells assessed as up regulation of ribonuclease/angiogenin inhibitor 1 gene expression at cytotoxic IC50 measured after 48 hrs relative to control"}, "[28]": {"assay": "Inhibition of RTK/PI3K/AKT/mTOR signaling in human U87 cells assessed as up regulation of solute carrier family 33 member 1 gene expression at cytotoxic IC50 measured after 48 hrs relative to control"}, "[29]": {"assay": "Inhibition of RTK/PI3K/AKT/mTOR signaling in human U87 cells assessed as up regulation of SNHG16 gene expression at cytotoxic IC50 measured after 48 hrs relative to control"}, "[30]": {"assay": "Inhibition of RTK/PI3K/AKT/mTOR signaling in human U87 cells assessed as up regulation of TSC22D1 gene expression at cytotoxic IC50 measured after 48 hrs relative to control"}, "[31]": {"assay": "Inhibition of RTK/PI3K/AKT/mTOR signaling in human U87 cells assessed as up regulation of NUDT21 gene expression at cytotoxic IC50 measured after 48 hrs relative to control"}, "[32]": {"assay": "Inhibition of RTK/PI3K/AKT/mTOR signaling in human U87 cells assessed as up regulation of RPL11 gene expression at cytotoxic IC50 measured after 48 hrs relative to control"}}, "note": "Further values from the same series stand in other lists.", "data": [{"smiles": "CC(=O)C(=NNc1ccccc1C#N)C(C)=O", "values": [{"measurement": "log2FC", "setting": "[1]", "value": -2.05}, {"measurement": "log2FC", "setting": "[2]", "value": -1.76}, {"measurement": "log2FC", "setting": "[3]", "value": -1.52}, {"measurement": "log2FC", "setting": "[4]", "value": -1.33}, {"measurement": "log2FC", "setting": "[5]", "value": -1.26}, {"measurement": "log2FC", "setting": "[6]", "value": -1.12}, {"measurement": "log2FC", "setting": "[7]", "value": -1.02}, {"measurement": "log2FC", "setting": "[8]", "value": -0.968}, {"measurement": "log2FC", "setting": "[9]", "value": -0.945}, {"measurement": "log2FC", "setting": "[10]", "value": -0.921}, {"measurement": "log2FC", "setting": "[11]", "value": -0.897}, {"measurement": "log2FC", "setting": "[12]", "value": -0.891}, {"measurement": "log2FC", "setting": "[13]", "value": -0.843}, {"measurement": "log2FC", "setting": "[14]", "value": -0.758}, {"measurement": "log2FC", "setting": "[15]", "value": -0.678}, {"measurement": "log2FC", "setting": "[16]", "value": -0.641}, {"measurement": "log2FC", "setting": "[17]", "value": 1.79}, {"measurement": "log2FC", "setting": "[18]", "value": 1.09}, {"measurement": "log2FC", "setting": "[19]", "value": 1.07}, {"measurement": "log2FC", "setting": "[20]", "value": 1.07}, {"measurement": "log2FC", "setting": "[21]", "value": 1.06}, {"measurement": "log2FC", "setting": "[22]", "value": 0.895}, {"measurement": "log2FC", "setting": "[23]", "value": 0.867}, {"measurement": "log2FC", "setting": "[24]", "value": 0.857}, {"measurement": "log2FC", "setting": "[25]", "value": 0.819}, {"measurement": "log2FC", "setting": "[26]", "value": 0.791}, {"measurement": "log2FC", "setting": "[27]", "value": 0.734}, {"measurement": "log2FC", "setting": "[28]", "value": 0.688}, {"measurement": "log2FC", "setting": "[29]", "value": 0.616}, {"measurement": "log2FC", "setting": "[30]", "value": 0.594}, {"measurement": "log2FC", "setting": "[31]", "value": 0.557}, {"measurement": "log2FC", "setting": "[32]", "value": 0.326}]}]}
